The supplement of paper PMC12067093, “Discovery and optimisation of a covalent ligand for TRIM25 and its application to targeted protein ubiquitination” (Chemical Science, 2025)
The list shows a part of the results.

Protein sequences, listed by entry. Tags and fused reporters are not part of them. Lines headed by an entry give the natural chain unless they say otherwise; changes in a name come on top.
UniProt Q5TEJ8: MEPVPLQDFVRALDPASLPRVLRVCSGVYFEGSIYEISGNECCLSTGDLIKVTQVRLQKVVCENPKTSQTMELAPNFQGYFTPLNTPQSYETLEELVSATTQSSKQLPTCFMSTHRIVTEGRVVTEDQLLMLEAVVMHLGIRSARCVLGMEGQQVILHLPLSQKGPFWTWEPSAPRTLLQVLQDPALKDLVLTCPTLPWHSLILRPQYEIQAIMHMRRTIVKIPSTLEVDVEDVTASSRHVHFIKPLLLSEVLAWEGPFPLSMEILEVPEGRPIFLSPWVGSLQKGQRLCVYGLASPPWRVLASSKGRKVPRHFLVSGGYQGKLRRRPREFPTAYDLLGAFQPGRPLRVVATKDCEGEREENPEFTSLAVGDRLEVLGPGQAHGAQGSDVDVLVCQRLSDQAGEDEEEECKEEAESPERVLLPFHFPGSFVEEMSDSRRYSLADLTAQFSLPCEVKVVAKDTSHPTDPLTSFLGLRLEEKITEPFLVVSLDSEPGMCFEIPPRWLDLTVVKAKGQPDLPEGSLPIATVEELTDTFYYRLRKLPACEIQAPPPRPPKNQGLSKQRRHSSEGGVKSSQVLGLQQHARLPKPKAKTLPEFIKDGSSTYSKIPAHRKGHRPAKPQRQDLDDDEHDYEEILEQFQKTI
UniProt P07996: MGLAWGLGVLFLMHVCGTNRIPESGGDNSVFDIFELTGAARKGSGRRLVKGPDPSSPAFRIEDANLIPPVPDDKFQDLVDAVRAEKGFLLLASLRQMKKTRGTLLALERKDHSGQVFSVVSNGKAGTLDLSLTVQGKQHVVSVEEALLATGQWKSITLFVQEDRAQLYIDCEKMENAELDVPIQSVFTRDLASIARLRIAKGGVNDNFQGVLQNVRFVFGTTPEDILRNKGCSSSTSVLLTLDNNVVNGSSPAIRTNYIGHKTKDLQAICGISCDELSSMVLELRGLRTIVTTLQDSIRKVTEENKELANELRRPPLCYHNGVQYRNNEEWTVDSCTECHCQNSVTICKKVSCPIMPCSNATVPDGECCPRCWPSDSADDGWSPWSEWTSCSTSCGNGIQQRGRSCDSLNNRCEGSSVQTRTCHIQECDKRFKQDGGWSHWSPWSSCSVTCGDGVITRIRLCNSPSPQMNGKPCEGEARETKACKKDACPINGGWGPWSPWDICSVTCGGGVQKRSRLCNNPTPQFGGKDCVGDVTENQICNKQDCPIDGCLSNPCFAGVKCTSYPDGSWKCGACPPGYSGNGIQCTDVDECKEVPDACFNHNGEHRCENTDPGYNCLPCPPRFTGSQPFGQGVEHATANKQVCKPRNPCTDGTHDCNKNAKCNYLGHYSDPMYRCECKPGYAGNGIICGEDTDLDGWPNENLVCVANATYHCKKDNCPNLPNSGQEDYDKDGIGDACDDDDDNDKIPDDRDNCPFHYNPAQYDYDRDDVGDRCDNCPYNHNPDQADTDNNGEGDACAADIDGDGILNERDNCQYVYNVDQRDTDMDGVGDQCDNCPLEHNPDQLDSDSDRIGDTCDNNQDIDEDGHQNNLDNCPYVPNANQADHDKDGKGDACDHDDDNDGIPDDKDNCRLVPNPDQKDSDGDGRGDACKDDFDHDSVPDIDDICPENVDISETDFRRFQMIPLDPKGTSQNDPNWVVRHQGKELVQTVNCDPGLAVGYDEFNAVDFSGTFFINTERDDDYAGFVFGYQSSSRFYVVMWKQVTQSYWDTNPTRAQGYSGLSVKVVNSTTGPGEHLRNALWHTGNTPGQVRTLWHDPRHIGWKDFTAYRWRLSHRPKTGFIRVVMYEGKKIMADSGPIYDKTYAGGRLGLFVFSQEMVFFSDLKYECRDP
UniProt Q8NHU6: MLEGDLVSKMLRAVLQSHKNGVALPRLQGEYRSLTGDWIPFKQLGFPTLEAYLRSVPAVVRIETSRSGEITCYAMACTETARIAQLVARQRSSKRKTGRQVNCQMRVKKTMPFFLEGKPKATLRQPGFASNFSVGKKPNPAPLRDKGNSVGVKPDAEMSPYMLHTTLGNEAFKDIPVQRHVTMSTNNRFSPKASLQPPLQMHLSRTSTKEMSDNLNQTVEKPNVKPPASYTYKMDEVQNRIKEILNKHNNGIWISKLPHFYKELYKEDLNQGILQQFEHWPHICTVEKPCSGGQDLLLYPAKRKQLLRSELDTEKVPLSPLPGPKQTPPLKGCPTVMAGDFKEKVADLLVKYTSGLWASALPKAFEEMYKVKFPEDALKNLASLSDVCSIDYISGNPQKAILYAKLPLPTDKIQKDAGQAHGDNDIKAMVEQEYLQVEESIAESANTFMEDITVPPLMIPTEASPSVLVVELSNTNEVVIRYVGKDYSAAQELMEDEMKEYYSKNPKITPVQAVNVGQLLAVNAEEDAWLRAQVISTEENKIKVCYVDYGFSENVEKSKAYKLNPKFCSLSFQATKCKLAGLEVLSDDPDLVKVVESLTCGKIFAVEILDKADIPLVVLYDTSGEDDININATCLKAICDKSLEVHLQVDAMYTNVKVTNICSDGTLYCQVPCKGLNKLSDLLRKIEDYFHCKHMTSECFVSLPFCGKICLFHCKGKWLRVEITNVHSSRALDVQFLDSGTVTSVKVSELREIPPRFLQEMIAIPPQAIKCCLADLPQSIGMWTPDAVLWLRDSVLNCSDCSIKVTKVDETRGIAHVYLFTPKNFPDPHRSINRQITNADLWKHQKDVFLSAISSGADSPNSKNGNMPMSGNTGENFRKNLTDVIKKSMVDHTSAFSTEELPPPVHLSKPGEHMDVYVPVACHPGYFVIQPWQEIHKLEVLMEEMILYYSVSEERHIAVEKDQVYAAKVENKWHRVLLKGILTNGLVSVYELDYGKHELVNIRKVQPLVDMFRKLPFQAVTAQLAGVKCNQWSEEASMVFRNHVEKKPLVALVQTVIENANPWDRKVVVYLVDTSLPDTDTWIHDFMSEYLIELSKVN
UniProt P52888, whole entry, looked up: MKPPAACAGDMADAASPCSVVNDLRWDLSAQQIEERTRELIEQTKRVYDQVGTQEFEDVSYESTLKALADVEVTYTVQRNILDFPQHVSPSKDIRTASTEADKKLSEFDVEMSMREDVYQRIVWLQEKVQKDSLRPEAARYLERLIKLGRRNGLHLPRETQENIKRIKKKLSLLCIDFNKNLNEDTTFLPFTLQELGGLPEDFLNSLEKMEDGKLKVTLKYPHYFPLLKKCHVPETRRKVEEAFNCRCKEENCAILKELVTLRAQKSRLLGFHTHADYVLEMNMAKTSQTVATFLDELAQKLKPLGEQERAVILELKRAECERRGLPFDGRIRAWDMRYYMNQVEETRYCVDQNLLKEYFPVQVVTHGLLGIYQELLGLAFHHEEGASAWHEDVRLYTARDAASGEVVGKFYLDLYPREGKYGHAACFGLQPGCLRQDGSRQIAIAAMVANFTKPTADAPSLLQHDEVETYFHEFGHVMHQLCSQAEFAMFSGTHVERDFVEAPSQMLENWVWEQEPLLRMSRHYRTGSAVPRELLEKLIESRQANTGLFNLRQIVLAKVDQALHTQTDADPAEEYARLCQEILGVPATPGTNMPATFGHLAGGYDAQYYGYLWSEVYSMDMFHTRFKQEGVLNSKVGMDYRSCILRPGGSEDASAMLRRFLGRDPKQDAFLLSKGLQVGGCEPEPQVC
UniProt P17987, whole entry, looked up: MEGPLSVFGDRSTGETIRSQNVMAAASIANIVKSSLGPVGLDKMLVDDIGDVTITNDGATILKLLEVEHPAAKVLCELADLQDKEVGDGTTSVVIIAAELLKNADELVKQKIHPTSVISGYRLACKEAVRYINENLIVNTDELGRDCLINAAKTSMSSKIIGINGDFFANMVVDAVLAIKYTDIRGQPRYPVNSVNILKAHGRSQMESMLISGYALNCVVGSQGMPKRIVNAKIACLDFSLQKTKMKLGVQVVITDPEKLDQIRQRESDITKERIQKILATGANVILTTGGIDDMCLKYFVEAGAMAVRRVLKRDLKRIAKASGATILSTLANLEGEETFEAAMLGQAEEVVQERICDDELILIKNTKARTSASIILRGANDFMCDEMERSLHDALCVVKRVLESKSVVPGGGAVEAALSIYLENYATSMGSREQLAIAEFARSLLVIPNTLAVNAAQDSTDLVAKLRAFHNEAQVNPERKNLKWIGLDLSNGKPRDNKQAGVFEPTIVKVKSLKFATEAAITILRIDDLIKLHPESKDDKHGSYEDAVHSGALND
UniProt Q9BV44: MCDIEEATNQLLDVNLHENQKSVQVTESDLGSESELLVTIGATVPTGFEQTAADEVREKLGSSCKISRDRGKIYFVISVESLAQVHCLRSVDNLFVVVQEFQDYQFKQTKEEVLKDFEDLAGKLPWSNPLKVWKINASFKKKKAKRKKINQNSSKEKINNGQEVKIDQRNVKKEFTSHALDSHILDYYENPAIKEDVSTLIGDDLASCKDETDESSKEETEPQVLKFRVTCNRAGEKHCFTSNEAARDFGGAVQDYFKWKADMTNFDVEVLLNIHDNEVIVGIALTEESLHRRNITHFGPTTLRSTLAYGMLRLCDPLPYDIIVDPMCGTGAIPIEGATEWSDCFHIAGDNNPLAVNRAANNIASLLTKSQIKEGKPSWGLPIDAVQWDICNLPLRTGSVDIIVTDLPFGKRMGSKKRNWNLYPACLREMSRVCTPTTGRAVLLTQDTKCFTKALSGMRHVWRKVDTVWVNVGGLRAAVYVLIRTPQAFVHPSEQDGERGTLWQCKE
UniProt Q9UNS1: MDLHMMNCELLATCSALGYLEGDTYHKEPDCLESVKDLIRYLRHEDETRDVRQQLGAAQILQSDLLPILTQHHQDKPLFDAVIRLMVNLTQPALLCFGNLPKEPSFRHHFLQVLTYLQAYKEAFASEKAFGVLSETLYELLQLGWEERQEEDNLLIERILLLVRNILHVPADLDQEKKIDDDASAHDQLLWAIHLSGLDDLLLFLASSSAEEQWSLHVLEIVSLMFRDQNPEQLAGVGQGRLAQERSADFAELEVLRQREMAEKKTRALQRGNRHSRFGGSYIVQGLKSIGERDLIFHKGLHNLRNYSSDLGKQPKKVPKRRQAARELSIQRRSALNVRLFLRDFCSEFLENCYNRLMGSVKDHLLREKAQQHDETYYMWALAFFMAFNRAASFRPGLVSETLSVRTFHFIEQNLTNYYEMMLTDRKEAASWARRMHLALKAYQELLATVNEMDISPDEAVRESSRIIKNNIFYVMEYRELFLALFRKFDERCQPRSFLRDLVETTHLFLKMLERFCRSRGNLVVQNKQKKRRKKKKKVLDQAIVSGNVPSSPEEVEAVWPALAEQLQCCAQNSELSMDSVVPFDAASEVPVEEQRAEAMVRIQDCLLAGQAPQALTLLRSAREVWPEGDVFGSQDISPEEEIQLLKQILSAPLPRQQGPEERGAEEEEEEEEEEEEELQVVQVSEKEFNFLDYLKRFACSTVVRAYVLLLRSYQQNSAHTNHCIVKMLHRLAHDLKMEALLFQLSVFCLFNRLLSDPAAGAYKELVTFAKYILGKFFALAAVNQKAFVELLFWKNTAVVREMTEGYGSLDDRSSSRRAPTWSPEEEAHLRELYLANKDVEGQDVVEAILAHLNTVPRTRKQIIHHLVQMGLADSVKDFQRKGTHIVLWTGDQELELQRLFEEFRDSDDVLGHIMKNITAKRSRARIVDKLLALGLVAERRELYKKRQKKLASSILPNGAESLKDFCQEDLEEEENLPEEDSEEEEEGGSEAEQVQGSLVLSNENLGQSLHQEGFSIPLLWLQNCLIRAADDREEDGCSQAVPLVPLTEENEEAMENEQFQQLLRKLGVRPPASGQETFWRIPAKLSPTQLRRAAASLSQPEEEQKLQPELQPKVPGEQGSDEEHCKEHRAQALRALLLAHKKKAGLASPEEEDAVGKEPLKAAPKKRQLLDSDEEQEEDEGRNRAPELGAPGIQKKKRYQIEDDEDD
UniProt P29401: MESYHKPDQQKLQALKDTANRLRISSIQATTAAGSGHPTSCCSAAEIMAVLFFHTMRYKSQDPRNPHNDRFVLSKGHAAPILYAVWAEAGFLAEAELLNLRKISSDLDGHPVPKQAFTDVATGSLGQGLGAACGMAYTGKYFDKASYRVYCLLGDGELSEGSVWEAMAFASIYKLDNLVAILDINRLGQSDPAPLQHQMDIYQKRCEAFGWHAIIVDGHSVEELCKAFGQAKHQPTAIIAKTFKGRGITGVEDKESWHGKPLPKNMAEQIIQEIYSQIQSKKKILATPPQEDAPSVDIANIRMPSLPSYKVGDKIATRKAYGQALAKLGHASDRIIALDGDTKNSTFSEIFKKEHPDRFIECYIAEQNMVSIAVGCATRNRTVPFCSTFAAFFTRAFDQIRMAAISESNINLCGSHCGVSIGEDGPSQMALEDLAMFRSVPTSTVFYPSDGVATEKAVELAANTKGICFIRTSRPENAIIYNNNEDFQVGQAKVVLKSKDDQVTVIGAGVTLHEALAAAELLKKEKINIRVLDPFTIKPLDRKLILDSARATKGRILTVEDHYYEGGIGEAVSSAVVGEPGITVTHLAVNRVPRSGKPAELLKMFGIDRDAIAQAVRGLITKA

compound: Cc1cc(ccc1-c1ccccc1)C(=O)N1CCCN(CC1)C(=O)CCl [compound 10]; test: probe-labelled cysteine peptide fold change vs DMSO (competition) (log2 fold change); higher = less target engagement (more negative = stronger competition); details: 50 µM; THP-1; incubation time: 4 h
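Further: competitive profiling in live THP-1 cells: cysteine peptides tagged with an iodoacetamide desthiobiotin (IA-DTB) probe, intensity after compound treatment relative to DMSO-treated cells.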

Going from “THOC5_Q13769_613_ELCGPWPSHQLLTNQLQR (UniProt Q13769)” to “THBD_P07204_175_ADGFLCEFHFPATCRPLAVEPGAAAAAVSITYGTPFAAR (UniProt P07204)”, the “probe-labelled cysteine peptide fold change” value rises from 0.219 to 0.339.

First: TEX264_Q9Y6I9_94_CAVGSILSEGEESPSPELIDLYQK (UniProt Q9Y6I9)
Second: THEMIS2_Q5TEJ8_355_DCEGEREENPEFTSLAVGDR (UniProt Q5TEJ8)
The “probe-labelled cysteine peptide fold change” value of the first is lower: 0.00385 for the first, 0.194 for the second.

First: TFCP2_Q12800_395_LTIYVCQESLQLR (UniProt Q12800)
Second: THUMPD1_Q9NXG2_248_AVCCLSVVK (UniProt Q9NXG2)
The “probe-labelled cysteine peptide fold change” value of the first is higher: 0.303 for the first, 0.273 for the second.

Compared with “THBS1_P07996_718_KDNCPNLPNSGQEDYDK (UniProt P07996)”, “TDRD7_Q8NHU6_333_GCPTVMAGDFK (UniProt Q8NHU6)” is lower in “probe-labelled cysteine peptide fold change” value: -0.515 for the first, -0.539 for the second.

Compared with “THOP1_P52888_434_YGHAACFGLQPGCLR (UniProt P52888)”, “THBS1_P07996_318_RPPLCYHNGVQYR (UniProt P07996)” is lower in “probe-labelled cysteine peptide fold change” value: 0.0869 for the first, -0.379 for the second.

First: THOC3_Q96J01_106_GHGDSVDQLCWHPSNPDLFVTASGDK (UniProt Q96J01)
Second: TCP1_P17987_147_YINENLIVNTDELGRDCLINAAK (UniProt P17987)
The “probe-labelled cysteine peptide fold change” value of the first is lower: -0.191 for the first, -0.0166 for the second.

First: TDRD7_Q8NHU6_1029_CNQWSEEASMVFR (UniProt Q8NHU6)
Second: THOC2_Q8NI27_986_CIFSAIDAVYCAR (UniProt Q8NI27)
The “probe-labelled cysteine peptide fold change” value of the first is lower: -0.845 for the first, 0.00569 for the second.

Compared with “TCP1_P17987_397_SLHDALCVVKR (UniProt P17987)”, “TDRD7_Q8NHU6_103_QVNCQMR (UniProt Q8NHU6)” is higher in “probe-labelled cysteine peptide fold change” value: -0.718 for the first, -0.257 for the second.

First: TLN1_Q9Y490_2161_ALEATTEHIRQELAVFCSPEPPAK (UniProt Q9Y490)
Second: THOP1_P52888_18_MKPPAACAGDMADAASPCSVVNDLR (UniProt P52888)
The “probe-labelled cysteine peptide fold change” value of the first is higher: 0.0606 for the first, -0.66 for the second.

First: THOC6_Q86W42_148_ENSLILAGGDCQLHTMDLETGTFTR (UniProt Q86W42)
Second: TEX30_Q5JUR7_166_EPVLFVSGSADEMCEK (UniProt Q5JUR7)
The “probe-labelled cysteine peptide fold change” value of the first is higher: 0.156 for the first, 0.0431 for the second.

First: TLE4_Q04727_32_FTISESCDR (UniProt Q04727)
Second: THADA_Q6YHU6_1605_ENHPECFCK (UniProt Q6YHU6)
The “probe-labelled cysteine peptide fold change” value of the first is higher: 0.219 for the first, 0.033 for the second.

Compared with “THOP1_P52888_253_EENCAILK (UniProt P52888)”, “TDP1_Q9NUW8_48_YTCSEAQK (UniProt Q9NUW8)” is lower in “probe-labelled cysteine peptide fold change” value: 0.0323 for the first, -0.359 for the second.

Compared with “THBS1_P07996_657_NPCTDGTHDCNK (UniProt P07996)”, “THUMPD3_Q9BV44_391_PSWGLPIDAVQWDICNLPLR (UniProt Q9BV44)” is higher in “probe-labelled cysteine peptide fold change” value: -0.374 for the first, -0.178 for the second.

First: THUMPD3_Q9BV44_2_CDIEEATNQLLDVNLHENQK (UniProt Q9BV44)
Second: THOP1_P52888_682_GLQVGGCEPEPQVC (UniProt P52888)
The “probe-labelled cysteine peptide fold change” value of the first is higher: -0.0119 for the first, -0.0328 for the second.

Going from “TGFBRAP1_Q8WUH2_32_VNIECVECCGR (UniProt Q8WUH2)” to “TEPSIN_Q96N21_493_LVGAGAAAGESCPDAPR (UniProt Q96N21)”, the “probe-labelled cysteine peptide fold change” value falls from 0.0448 to -0.427.

First: TIMM29_Q9BSF4_130_YVNLGLCSLVYEAPFDAQASLYQAR (UniProt Q9BSF4)
Second: TK1_P04183_66_YSSSFCTHDR (UniProt P04183)
The “probe-labelled cysteine peptide fold change” value of the first is higher: 0.332 for the first, -0.397 for the second.

First: TIMELESS_Q9UNS1_606_IQDCLLAGQAPQALTLLR (UniProt Q9UNS1)
Second: TIMELESS_Q9UNS1_96_LMVNLTQPALLCFGNLPK (UniProt Q9UNS1)
The “probe-labelled cysteine peptide fold change” value of the first is higher: -0.232 for the first, -1.08 for the second.

Compared with “TKT_P29401_362+376_EHPDRFIECYIAEQNMVSIAVGCATR (UniProt P29401)”, “THSD7A_Q9UPZ6_1459_SRPVIIQELENQHLCPEQMLETK (UniProt Q9UPZ6)” is lower in “probe-labelled cysteine peptide fold change” value: 0.408 for the first, 0.0865 for the second.

Compared with “TKT_P29401_362_EHPDRFIECYIAEQNMVSIAVGCATR (UniProt P29401)”, “TEP1_Q99973_2275_EADDTCIPR (UniProt Q99973)” is lower in “probe-labelled cysteine peptide fold change” value: -0.161 for the first, -0.236 for the second.

First: TERF1_P54274_118_NSAEAIIHGLSSLTACQLR (UniProt P54274)
Second: TDRD7_Q8NHU6_72_SGEITCYAMACTETAR (UniProt Q8NHU6)
The “probe-labelled cysteine peptide fold change” value of the first is higher: -0.297 for the first, -1.02 for the second.
